Data from patent US20250108100A1, “C-TERMINAL FRAGMENT OF APOLIPOPROTEIN E AND APPLICATION THEREOF IN INHIBITING y-SECRETASE ACTIVITY” (SYNPHATEC (SHANGHAI) BIOPHARMACEUTICAL TECHNOLOGY CO., LTD., priority 2022, published 2025).
“Also recorded” adds a separate entry of the source.

Experiments:
HEK 293T cells = experiment: Immunofluorescence of ApoE from culture medium in HEK 293T cells; assay type: cell-based, human; details: immunofluorescence after co-incubation
primary cultured neurons = experiment: Immunofluorescence of ApoE from culture medium in primary cultured neurons; assay type: cell-based, mouse; details: immunofluorescence after co-incubation

B1: ApoE CT: C-terminal fragment of ApoE, positions 216-299 of SEQ ID NO: 12; SEQ ID NO: 33 (protein)
chain: ARMEEMGSRTRDRLDEVKEQVAEVRAKLEEQAQQIRLQAEAFQARLKSWFEPLVEDMQRQWAGLVEKVQAAVGTSAAPVPSDNH
protein from culture medium detected inside cells (HEK 293T cells): mainly adhered to the cell surface and hardly entered the cell; also recorded: largely could not be detected inside the cells; also recorded: mainly detected outside the cell membrane
protein from culture medium detected inside neurons (primary cultured neurons): mainly adhered to the cell surface and hardly entered the cell; also recorded: largely could not be detected inside the primary cultured neurons; also recorded: mainly detected outside the cell membrane
